# Library screen at single concentrations

T. brucei: 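Whole-parasite assay of Trypanosoma brucei over 72 hours; the read-out is not stated. Tested at 30 µM. The record gives no direction; compounds that gave an IC50 in retests scored well above the rest, so higher reads as stronger inhibition. Values scatter widely below zero; nearly all retest evidence comes from the higher of the two concentrations used. Size under these conditions: about 64,000 compounds, about 940 of them at 50% or above in at least one test.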
Toxoplasma: 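Assay of Toxoplasma gondii numbers, read through their beta-galactosidase reporter with a colour substrate. Compounds at 10 µM. Higher reads as fewer parasites (inferred from which compounds were picked for retests). About 67,000 compounds were tested under these conditions; 0.38% (about 260) showed 50% or more at least once.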

Results are given as percent effect. How 0% and 100% were set is not recorded. Most values in the screen are low, and negative values occur. The compounds are a random part of those screened. A dash means the value is not listed here; it may have been measured.

structure,T. brucei,Toxoplasma
COc1ccc(NC(=O)CCN2CC=C(c3cnn(C)c3)CC2)cc1Cl,-142.7,11.97
CCn1cnnc1CNC(=O)N(C)Cc1ccc2c(c1)OCO2,2.437,-9.948
O=C(O)C(F)(F)F.O=C(O)C(F)(F)F.[H][C@@]12COC[C@@H](CC(=O)N3CCOCC3)[C@]1([H])CN(Cc1cccnc1)C2,-22.96,-2.493
O=C(O)C(F)(F)F.O=C(O)C(F)(F)F.[H][C@]12CO[C@H](CN(C)Cc3ccco3)[C@@]1([H])CCN(c1cccc(C)n1)C2,-13.32,-4.19
N#CCCNC(=O)CN1CC(n2cccn2)C1,-4.719,-3.616
Cc1cc(=O)n2nc(-c3cccs3)nc2n1CC(=O)NC(C)C,1.208,-18.69
Cc1cnn(CCNCC(=O)NCC2(c3ccccc3)CC2)c1,-,4.79
CC(C)c1nnc(NCc2cc3n(n2)CCNC3)s1,-1.166,6.786
O=C(O)C(F)(F)F.c1cnc(N2CCOCC3(C2)CN(c2nccs2)CCO3)nc1 (stereo not shown),-51.03,-3.48
O=C(Cc1c[nH]c2ccccc12)N1CCC(Nc2cccnn2)CC1,5.818,2.781
COCCN1C[C@@H](C)[C@@]2(COCCN(C(=O)c3cccc(C)n3)C2)C1.O=C(O)C(F)(F)F.O=C(O)C(F)(F)F,-5.198,5.542
N#Cc1ccc(OCCCN2CCc3cncnc3C2)cc1,-33.36,-
O=C(O)C(F)(F)F.O=C(O)C(F)(F)F.[H][C@@]12CN(Cc3csc(C)n3)CCO[C@]1([H])CN(Cc1ccsc1)C2,43.49,3.151
Cc1cnc(NC(=O)NC(CCO)c2cccs2)s1 (stereo not shown),-26.03,8.283
COc1cc(N2CCc3ncnc(-c4cnn(C)c4)c3CC2)ncn1,-19.15,-1.016
NC(=O)NC(=O)C(c1ccccc1)N1CCN(Cc2ccc(Cl)s2)CC1 (stereo not shown),-,13.12
O=C1OCCN1Cc1ncnn1Cc1c(F)cccc1Cl,21.61,-6.922
CN(CCCNC(=O)C1CCc2cn[nH]c2C1)c1ccccc1 (stereo not shown),-1.329,6.364
Fc1ccc(-c2nc(CN3CCCC3Cn3cncn3)co2)cc1 (stereo not shown),-20.63,0.5453
Cc1noc(C)c1CN1C[C@H](C)[C@]2(CCN(Cc3cccnc3)C2=O)C1.O=C(O)C(F)(F)F.O=C(O)C(F)(F)F,-4.462,-6.34
O=C(O)C(F)(F)F.c1cnc(NCc2nnn3c2CN(CC2CC2)CCC3)nc1,-52.08,16.5
Cc1ccc2c(c1)C(=O)NCC1(CCN(Cc3ccccc3)CC1)O2,20.11,-17.25
CCN(CCC(F)(F)F)C(=O)Nc1cccc(N2CCOCC2)c1,1.135,3.693
CCCc1cc(=O)[nH]c2nnc(SCC(=O)NCc3ccc(C)cc3)n12,-56.62,-0.2189
c1cnc(N2CCCC3(COCCN(c4nncs4)C3)C2)cn1 (stereo not shown),43.5,2.2
Cl.O=C(OCC1CCCN1)c1cccc(NC(=O)c2ccco2)c1 (stereo not shown),-33.64,15.34
CC(=O)c1cccc(NC(=O)COc2c(C)n(C)ccc2=O)c1,33.09,-0.1195
CC(CC#N)NC(=O)c1cc(Br)c2c(c1)OCCO2 (stereo not shown),-24.69,-1.05
Cc1cc(C(=O)N[C@H]2CN(CCC(N)=O)C[C@@H]2C2CC2)sc1C,-38.46,-0.9798
CC(C)Nc1nc2c(s1)C(=O)CN(C(=O)NCc1ccccc1)C2,-17.04,-2.238
CCOc1ccc(-c2c(-c3ccccc3)ncn2C2CCNC2)cn1 (stereo not shown),-,7.372
O=C(O)Cn1ccc2c(Cl)cccc21,-52.56,6.384
COc1nn(C)cc1C(=O)N1CCC(c2ccccc2)C1 (stereo not shown),-15.17,16.52
[H][C@@]12C[C@H](C(=O)N(C)C)[C@@]([H])(CN(C(=O)NCc3ccccc3C)C1)O2,-13.05,0.08399
CCC(CO)N(Cc1ccccn1)C(=O)c1cccc(C#N)c1 (stereo not shown),-26.34,5.24
CNC(=O)C(NC(C)=O)c1ccc(F)c(F)c1 (stereo not shown),-32.56,2.412
Cn1cccc1CN1CCC2(CC1)CCN(C(=O)c1cnccn1)CC2.O=C(O)C(F)(F)F,-143.5,-8.225
Cc1cc(C(=O)NCc2cccnc2N2CCCC(O)C2)c(C)o1 (stereo not shown),-71.53,11.24
CC(C)c1noc(CCCC(=O)N2CCC(Cc3cccnc3)CC2)n1,-28.53,-
O=C(N[C@@H]1CCC[C@@H](N2CCOCC2)[C@@H]1O)c1ncccn1,-49.45,3.79
Cc1nn(CCCNC(=O)C2CCN(S(C)(=O)=O)CC2)cc1Cl,-48.01,7.687
Cc1nn(C)c(C)c1-c1nccnc1CC1CCNCC1,2.041,-4.528
CCOCc1nc2c(c(N(C)Cc3ccsc3)n1)CCNCC2,-22.69,-7.1
CN(CCNC(=O)c1cccnc1)S(C)(=O)=O,18.44,-40.8
Cc1n[nH]c(CN2CCN(c3ncnc4scc(C)c34)CC2)c1Cl,-1.78,-1.51
CC(=O)N(Cc1noc(C)n1)C1CCN(CCOc2ccccc2)C1 (stereo not shown),-3.011,2.447
CCc1cc(N[C@@H](CO)C(N)=O)n2nc(C)c(C)c2n1,-11.09,-11.88
COc1ccc(OC)c(NC(=O)c2nc3ccccc3n(C)c2=O)c1,37.1,-3.215

Some entries from above, unchanged:

structure	T. brucei	Toxoplasma
CCOCc1nc2c(c(N(C)Cc3ccsc3)n1)CCNCC2	-22.69	-7.1
CC(C)c1noc(CCCC(=O)N2CCC(Cc3cccnc3)CC2)n1	-28.53	-
c1cnc(N2CCCC3(COCCN(c4nncs4)C3)C2)cn1 (stereo not shown)	43.5	2.2
Cc1cc(C(=O)NCc2cccnc2N2CCCC(O)C2)c(C)o1 (stereo not shown)	-71.53	11.24
O=C(N[C@@H]1CCC[C@@H](N2CCOCC2)[C@@H]1O)c1ncccn1	-49.45	3.79

Measurements from “University of Dundee, Small-Polar-MMV Screening Library” (2021), ChEMBL document CHEMBL3988442.